Here are results for one substance from PMC11789017, “Preventing inappropriate signals pre- and post-ligand perception by a toggle switch mechanism of ERECTA” (Proceedings of the National Academy of Sciences of the …, 2025).

Experiment [1] deals with T1, GST-BKI1 (BRI1 KINASE INHIBITOR 1) (UniProt Q9FMZ0).
T1 sequence: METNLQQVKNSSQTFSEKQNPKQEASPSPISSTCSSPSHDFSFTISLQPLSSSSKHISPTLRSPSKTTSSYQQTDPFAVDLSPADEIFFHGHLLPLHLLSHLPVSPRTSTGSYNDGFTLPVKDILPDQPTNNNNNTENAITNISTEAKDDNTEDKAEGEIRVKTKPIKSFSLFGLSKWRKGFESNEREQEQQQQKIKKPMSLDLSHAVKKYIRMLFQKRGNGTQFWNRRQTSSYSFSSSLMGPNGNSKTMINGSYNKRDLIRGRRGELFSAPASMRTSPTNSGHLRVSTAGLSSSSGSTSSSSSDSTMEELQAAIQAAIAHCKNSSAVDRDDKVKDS
The experiment can be described thus: BLI; recombinantly purified GST-BKI1 or GST-PUB30 and MBP-ER_CD variants at seven concentrations (156.25, 312.5, 625, 1,250, 2,500, 5,000 and 10,000 nM); three independent experiments; who was immobilised is in SI Appendix; both purified. A general note: Biolayer interferometry detects binding as a change in optical thickness at a sensor tip.

The target in experiment [2] is T2, GST-PUB30 (U-box E3 ligase PUB30) (UniProt Q058P4).
T2 sequence: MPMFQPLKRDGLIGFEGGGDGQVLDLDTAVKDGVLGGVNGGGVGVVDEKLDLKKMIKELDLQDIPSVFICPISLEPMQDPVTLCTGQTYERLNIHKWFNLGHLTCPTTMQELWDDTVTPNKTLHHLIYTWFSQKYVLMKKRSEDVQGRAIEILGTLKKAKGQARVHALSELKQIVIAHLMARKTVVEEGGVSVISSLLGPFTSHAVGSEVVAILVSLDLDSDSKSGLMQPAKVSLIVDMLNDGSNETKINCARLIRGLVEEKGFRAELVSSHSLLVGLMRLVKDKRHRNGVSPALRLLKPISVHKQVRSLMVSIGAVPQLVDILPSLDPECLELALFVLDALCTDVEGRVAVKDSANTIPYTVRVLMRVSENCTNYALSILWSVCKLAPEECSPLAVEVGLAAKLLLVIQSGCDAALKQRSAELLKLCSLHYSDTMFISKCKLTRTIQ
The description is as above.

Results are given in words; binding and its absence hold for the method and conditions named. Sequences can lack the tags named with a protein.

Consider “MBP-ER_CD_(ΔC43) (Arabidopsis) (domain or fragment)”, for which the binding entry in experiment [1] and in experiment [2] was “no binding (tested: up to 10,000 nM)” throughout.
